Results deposited as PubChem BioAssay AID743121 (NCATS, 2013).
This is one part, drawn at random, of about 26,000 deposited reagents. 167 of all reagents (0.63%) were called active. 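Calls are per gene from RSA p-values that are not deposited; an individual active-marked siRNA can sensitise only weakly.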 Reagents against one gene are numbered here. Further read-outs or replicates are left out here.

Screen: 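Partners whose loss is lethal together with topoisomerase I blockade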 (primary screen)
System: MDA-MB-231 cells, a human breast cancer line
Knock-down reagent: single siRNA against human genes, 20 nM siRNA (0.8 pmol per well)
Timing: 120 h (drug added 48 h after transfection, read 72 h later)
Treatment: camptothecin 20 nM (about EC30) for 72 h; vehicle 0.1% DMSO in parallel plates
Measurement: 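CellTiter-Glo ATP signal, scaled to control siRNA as percent viability; sensitisation given as log2 of untreated divided by camptothecin-treated viability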
Scale: log2 vehicle/camptothecin viability: higher = stronger sensitisation to camptothecin; viability with camptothecin: higher = more viable cells
Units: viability with camptothecin in % of control
Rule for the call: 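Each gene scored by redundant siRNA activity (RSA) over its individual siRNA ratios; a gene is called active at p < 0.001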

PTPDC1 #1
- log2 vehicle/camptothecin viability: -0.544
- viability with camptothecin: 70.9
- activity call: inactive

PTPDC1 #2
- log2 vehicle/camptothecin viability: -0.467
- viability with camptothecin: 91.3
- activity call: inactive

PTPDC1 #3
- log2 vehicle/camptothecin viability: -0.174
- viability with camptothecin: 71.7
- activity call: inactive

PTPDC1 #4
- log2 vehicle/camptothecin viability: -0.196
- viability with camptothecin: 86.3
- activity call: inactive

ATP6V1B2 #1
- log2 vehicle/camptothecin viability: -0.738
- viability with camptothecin: 35.7
- activity call: inactive

ATP6V1B2 #2
- log2 vehicle/camptothecin viability: -0.179
- viability with camptothecin: 55.8
- activity call: inactive

ATP6V1B2 #3
- log2 vehicle/camptothecin viability: -0.496
- viability with camptothecin: 58.8
- activity call: inactive

ATP6V1B2 #4
- log2 vehicle/camptothecin viability: -0.543
- viability with camptothecin: 66.7
- activity call: inactive

GPR180 #1
- log2 vehicle/camptothecin viability: 0.246
- viability with camptothecin: 85.5
- activity call: inactive

GPR180 #2
- log2 vehicle/camptothecin viability: -0.0903
- viability with camptothecin: 111
- activity call: inactive

GPR180 #3
- log2 vehicle/camptothecin viability: -0.492
- viability with camptothecin: 86.9
- activity call: inactive

CACNA2D1 #1
- log2 vehicle/camptothecin viability: 0.297
- viability with camptothecin: 72
- activity call: inactive

CACNA2D1 #2
- log2 vehicle/camptothecin viability: -0.242
- viability with camptothecin: 55.8
- activity call: inactive

CACNA2D1 #3
- log2 vehicle/camptothecin viability: -0.565
- viability with camptothecin: 93.5
- activity call: inactive

KCNJ8 #1
- log2 vehicle/camptothecin viability: -0.287
- viability with camptothecin: 36.9
- activity call: inactive

KCNJ8 #2
- log2 vehicle/camptothecin viability: 0.00795
- viability with camptothecin: 100
- activity call: inactive

KCNJ8 #3
- log2 vehicle/camptothecin viability: -0.157
- viability with camptothecin: 52.7
- activity call: inactive

KCNJ8 #4
- log2 vehicle/camptothecin viability: -0.239
- viability with camptothecin: 78.6
- activity call: inactive

Limited to “log2 vehicle/camptothecin viability”, for 4 of the entries above:
PTPDC1 #3 = -0.174
PTPDC1 #4 = -0.196
ATP6V1B2 #1 = -0.738
ATP6V1B2 #2 = -0.179

Next reagents follow:
FKBP4 #1
- log2 vehicle/camptothecin viability: 0.19
- viability with camptothecin: 69.9
- activity call: inactive

FKBP4 #2
- log2 vehicle/camptothecin viability: -0.401
- viability with camptothecin: 87
- activity call: inactive

FKBP4 #3
- log2 vehicle/camptothecin viability: -0.11
- viability with camptothecin: 76.3
- activity call: inactive

FKBP4 #4
- log2 vehicle/camptothecin viability: -0.383
- viability with camptothecin: 67.6
- activity call: inactive

PRKG1 #1
- log2 vehicle/camptothecin viability: -0.151
- viability with camptothecin: 115
- activity call: inactive

PRKG1 #2
- log2 vehicle/camptothecin viability: -0.274
- viability with camptothecin: 90.3
- activity call: inactive

PRKG1 #3
- log2 vehicle/camptothecin viability: 0.189
- viability with camptothecin: 74.5
- activity call: inactive

PRKG1 #4
- log2 vehicle/camptothecin viability: -0.187
- viability with camptothecin: 120
- activity call: inactive

MTMR2 #1
- log2 vehicle/camptothecin viability: 0.173
- viability with camptothecin: 95.7
- activity call: active

MTMR2 #2
- log2 vehicle/camptothecin viability: 0.561
- viability with camptothecin: 56.3
- activity call: active

MTMR2 #3
- log2 vehicle/camptothecin viability: 0.315
- viability with camptothecin: 30.4
- activity call: active

MTMR2 #4
- log2 vehicle/camptothecin viability: 0.259
- viability with camptothecin: 43.5
- activity call: active

TAP1 #1
- log2 vehicle/camptothecin viability: 0.204
- viability with camptothecin: 92.9
- activity call: inactive

TAP1 #2
- log2 vehicle/camptothecin viability: -0.255
- viability with camptothecin: 67.4
- activity call: inactive

TAP1 #3
- log2 vehicle/camptothecin viability: -0.545
- viability with camptothecin: 97.6
- activity call: inactive

TAP1 #4
- log2 vehicle/camptothecin viability: 0.391
- viability with camptothecin: 30.9
- activity call: inactive

CXXC4 #1
- log2 vehicle/camptothecin viability: -0.0933
- viability with camptothecin: 111
- activity call: inactive

CXXC4 #2
- log2 vehicle/camptothecin viability: -0.472
- viability with camptothecin: 91
- activity call: inactive

CXXC4 #3
- log2 vehicle/camptothecin viability: 0.199
- viability with camptothecin: 69.6
- activity call: inactive

CXXC4 #4
- log2 vehicle/camptothecin viability: -0.428
- viability with camptothecin: 24.6
- activity call: inactive
